## Library screening results

Amino acid sequences for entries named in this document (tags omitted).
UniProt E9BF75, entry or part of it: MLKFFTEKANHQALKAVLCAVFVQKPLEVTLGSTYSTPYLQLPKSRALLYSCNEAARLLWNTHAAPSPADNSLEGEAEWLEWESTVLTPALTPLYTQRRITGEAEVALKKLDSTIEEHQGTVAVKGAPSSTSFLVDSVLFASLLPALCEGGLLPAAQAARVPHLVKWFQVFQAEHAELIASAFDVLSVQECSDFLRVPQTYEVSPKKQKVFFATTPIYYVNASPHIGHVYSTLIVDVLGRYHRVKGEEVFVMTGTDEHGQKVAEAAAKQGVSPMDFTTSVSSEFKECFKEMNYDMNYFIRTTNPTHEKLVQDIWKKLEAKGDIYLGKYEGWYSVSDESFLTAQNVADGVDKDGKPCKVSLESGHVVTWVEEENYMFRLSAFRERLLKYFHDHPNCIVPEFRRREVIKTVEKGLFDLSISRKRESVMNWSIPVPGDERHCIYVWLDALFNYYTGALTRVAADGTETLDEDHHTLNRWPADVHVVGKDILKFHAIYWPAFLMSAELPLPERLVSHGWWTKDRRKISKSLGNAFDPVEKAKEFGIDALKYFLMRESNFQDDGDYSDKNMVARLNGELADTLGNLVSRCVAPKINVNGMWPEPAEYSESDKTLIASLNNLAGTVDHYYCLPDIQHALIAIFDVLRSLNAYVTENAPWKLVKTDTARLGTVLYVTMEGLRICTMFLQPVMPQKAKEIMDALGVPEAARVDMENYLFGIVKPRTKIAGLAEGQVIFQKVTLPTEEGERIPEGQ

The values are deposited in ChEMBL (CHEMBL3988442, “University of Dundee, Small-Polar-MMV Screening Library” (2021)).

All values are in %. The record does not define 0% and 100%; most values in the screen are far below 50% and negative numbers occur (in some assays of this library far below -100). This is an unselected part of the compounds tested.

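Primary screen of methionyl-tRNA synthetase; the read-out is not stated. Target: Methionyl-tRNA synthetase (putative), Leishmania donovani (UniProt E9BF75). The test concentration is not given. Values are per cent inhibition. About 68,000 compounds were tested under these conditions; 0.035% (about 24) showed 50% or more at least once.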

Compound	Inhibition
O=c1cc(CN2CCCC2)nc2n1CCCN(Cc1ccsc1)C2	12.86
O=S(=O)(CCN1CCN(c2ccccc2O)CC1)c1ccc(Cl)cc1	9.747
O=C(NCC1CC[C@@]2(CNCCOC2)O1)c1cnccn1 (stereo partly specified)	-6.574
O=C(O)CC1CN(Cc2ccccc2)CCO1 (stereo unspecified)	10.48
Cc1nccc(N2CCCC2CCNS(C)(=O)=O)n1 (stereo unspecified)	9.494
CCc1nnc2n1CCN(C(=O)C(C)Oc1cccc(C#N)c1)C2 (stereo unspecified)	10.3
CCOC(=O)C1(NCC(=O)Nc2cc(C)ccc2OC)CCCC1	8.757
COCC1CN(C(=O)Cc2cccs2)Cc2c1cnn2C (stereo unspecified)	9.341
COCCN1CCN(c2ccc(C)nn2)Cc2ccc(C)nc21	11.14
CC(C)C(=O)N1CCC(C2C(=O)Nc3ccccc32)CC1 (stereo unspecified)	10.56
CCN1CCN(S(=O)(=O)c2cc(C)c(Cl)cc2Cl)CC1	5.512
COCCN(C(=O)c1ccc(OC)cc1)c1ccc(C#N)cc1	5.645
O=S(=O)(NCCc1nc(-c2cccnc2)n[nH]1)NCc1ccccc1	14.97
CC(C)c1nc2c(n1C)CCN(CCc1ccccn1)C2	3.191
Cc1nc(CNC(C(=O)N2CCOCC2)c2ccccc2)cs1 (stereo unspecified)	9.948
CC(c1ncc(-c2ccccc2)o1)N1CCN(C(=O)N(C)C)CC1 (stereo unspecified)	8.05
COCc1nc(C(=O)N2CCN(Cc3cc(C)on3)CC2)cs1	11.38
CCc1nc(CN(C)CC(=O)NC(C)C)cs1	8.01
Cc1ccc(C(=O)Nc2ccc3c(c2)N(C)CCN(C)C3)c(=O)[nH]1	-14.61
Cc1nn(C)c(C)c1CCC(=O)NCc1cccnc1OC1CCCC1	8.711
Cc1nc(C)n(CC2CN(Cc3ccccc3C#N)CCO2)n1 (stereo unspecified)	20.57
O=C(NCCc1ccn(-c2ccccc2)n1)N1CCC1	9.028
CN(C)C(=O)c1cncnc1-c1ccc(CNC(=O)C2CC2)cc1	0.3125
CCc1sc(C(=O)NC2CC2)cc1C	-5.305
NC(=O)c1nc2c(s1)CCN(Cc1ccccc1)CC2	2.439
COC(=O)Nc1nc2c(s1)CN(C(=O)NCc1cccs1)CC2	-1.679
Cc1ccccc1C(CNc1ncnc2c1CCNC2)N(C)C (stereo unspecified)	4.871
CN1CCN(CC2CC2)C(=O)C12CCN(C(=O)CC(F)(F)F)CC2	13.19
CNc1nc(N2CCN(C3CCCCC3)C(CCO)C2)nc2c1CCC2 (stereo unspecified)	10.31
O=S(=O)(CC1CCCN1S(=O)(=O)C1CC1)c1ccccc1 (stereo unspecified)	13.82
CSc1nccn1-c1ccc(C(=O)NCC2CC2)cc1	11.45
O=c1[nH]ccc2cc(-c3cc(O)cc(CCC4CCCCN4)c3)ccc12 (stereo unspecified)	7.467
Cc1csc([C@@H]2C[C@@H]3CCN(Cc4cc(C)on4)C[C@H]3O2)n1	12.99
Cn1nccc1C(=O)N1CCOC(Cc2cccc(C(F)(F)F)c2)C1 (stereo unspecified)	9.756
Cc1ccc2cc(CNCCCN3CCOCC3)c(=O)[nH]c2c1	11.3
CC1CCN(c2ncc3c(n2)CN(Cc2cccc(F)c2)C3=O)CC1	9.392
COc1ccc(CN2Cc3cnn(C)c3C(COCC3CC3)C2)cc1 (stereo unspecified)	14.89
Cc1nn(C)c(C)c1OCC(=O)NCC(O)c1ccccc1F (stereo unspecified)	8.791
O=C(COc1cccc2c1CCC2=O)NCc1ccccc1Cl	23.34
CC(C)Oc1ccc(CN2CCCC(N3CCCC3)C2)cc1CO (stereo unspecified)	9.677
COC(=O)N1CCC(CNC(=O)C2CCN(S(C)(=O)=O)CC2)CC1	11.55
CC(CCc1ccccc1)NC(=O)Nc1cnn(CC(N)=O)c1 (stereo unspecified)	9.028
CC(C)N1[C@H](Cn2cncn2)C[C@@H]2CN(Cc3cccs3)CC[C@@H]21	5.042
COC(=O)CNC(=O)CCc1cc(Cl)cs1	5.836
Cc1nc(NC(=O)N2CCCC(C(C)(C)O)C2)nn1C (stereo unspecified)	17.01
O=c1[nH]c2c(-c3ccccn3)nsc2c(=O)n1CC1CCCO1 (stereo unspecified)	11.55
Cc1ccccc1C(=O)NC(C)CN1CCOC1=O (stereo unspecified)	11.92
CN1CCN(c2ncccn2)CC1C(N)=O (stereo unspecified)	-6.667
C1CCCN(c2nc(C3CC3)ns2)CC1	-0.4926
N#CCCNC(=O)CSc1ccc(F)cc1F	4.945
Cn1cccc1C(=O)N1CCC2(CC1)CN(c1cncnc1)C(=O)CO2	-35.19
CC1CC2(CCN(C(=O)c3csnn3)CC2)c2ccccc21 (stereo unspecified)	12.33
Cc1nc(CCN(C)C(=O)C2COc3ccccc3C2)no1 (stereo unspecified)	7.874
CC(C)n1nc(CN(C)C)c2c1CN(CC1CC1)CC2	7.609
CS(=O)(=O)Nc1ccn(Cc2ccc(Cl)cc2)n1	-43.97
Cc1nc(N2CCC(CN3CCCC3)CC2)c2cnn(C)c2n1	28.2
O=C(C1CCOCC1)N1C[C@H]2CC[C@@H]1CN(Cc1ccncc1)C2	8.362
Clc1cccnc1N1CCC(NCc2cccc3cn[nH]c23)C1 (stereo unspecified)	12.53
Cn1cc(N2CC3(COCCN(Cc4ccccn4)C3)OCC2=O)cn1 (stereo unspecified)	3.922
CC(C)c1nc2c(n1C)CCN(Cc1nc(-c3cccs3)no1)C2	13.65
Cc1nc(C2CCNC2)nc2c1CCC(=O)N2C (stereo unspecified)	10.87
Cc1nccc([C@H]2C[C@@H]3CCN(S(=O)(=O)C4CC4)C[C@H]3O2)n1	16.24
O=C(O)c1ccn(-c2ccccc2NS(=O)(=O)c2cccc(Cl)c2F)n1	9.019
Cc1ccsc1CN1CC2(CCN(C(=O)C3CC3)CC2)CC1C(=O)O (stereo unspecified)	4.8
COCC1COCCC12CCN(C(=O)Cc1ccc(F)cc1)CC2 (stereo unspecified)	11.24
CC(=O)N1CCC2(CC1)CN(C(C)C)c1ccc(F)cc12	6.452
CSc1nccc(NCC2CNCCOC2)n1 (stereo unspecified)	7.945
CCc1nc(CN(C)CC(N)=O)cs1	23.94
Cc1nn(C)c(C)c1C1CCCN1Cc1nc2ccccc2o1 (stereo unspecified)	14.21
CC(C)N1CCOCC2(CCCN(C(=O)c3cncn3C)C2)C1 (stereo unspecified)	5.797
CCC(CC)c1cc(CNC(=O)N2CCCC(c3ncc[nH]3)C2)on1 (stereo unspecified)	4.982
Cc1ccc(NC2CCN(C(=O)Cc3cccc(F)c3)CC2)nn1	13.07
CCNC(=O)[C@@H]1C[C@@H](N)CN1C(=O)CCc1ccc(C)c(C)c1	9.497
O=C(COCc1nc(-c2ccncc2)no1)N1CCCCC1	18.11
Cn1cc(C2CCCN2C(=O)CCCc2ccccn2)cn1 (stereo unspecified)	13.97
Cc1noc(C)c1CCC(=O)N1CCCN(CC(N)=O)CC1	15.3
O=C(NCC1CC1)C1CCC2(CCN(C(=O)c3ccccn3)CC2)O1 (stereo unspecified)	-3.704
Cc1occc1C(=O)N1CCc2c(CNc3ncccn3)cncc2C1	21.9

The first 4 entries again:

Compound,Inhibition
O=c1cc(CN2CCCC2)nc2n1CCCN(Cc1ccsc1)C2,12.86
O=S(=O)(CCN1CCN(c2ccccc2O)CC1)c1ccc(Cl)cc1,9.747
O=C(NCC1CC[C@@]2(CNCCOC2)O1)c1cnccn1 (stereo partly specified),-6.574
O=C(O)CC1CN(Cc2ccccc2)CCO1 (stereo unspecified),10.48